Where a name gives a salt, the structure may show the parent alone. The list shows a part of the results. Single values are uncertain here, since repeats match poorly.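 Screen of FDA-approved drugs, each combined with colistin at one-eighth of its MIC, against a multidrug-resistant mcr-1-positive clinical E. coli isolate; growth read as OD600 after 24 h. Bacteria without drug were the growth control and plain broth the blank. A combination counted as active when OD600 fell below 0.2.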

Among the data in the supplement of paper PMC11546906 are OD600 values, retold here.

This assay concerns Escherichia coli 42 (mcr-1-positive clinical isolate). The assay can be described thus: OD600 after 24 h growth with compound plus colistin (absorbance units (OD600)); higher = more bacterial growth (less inhibition). As to conditions: first compound 25 µM; colistin concentration 0.5 ug/mL; incubation time 24 h; 37 °C.
With `CN[C@@H]1[C@H](O)[C@H](NC)[C@H]2O[C@@]3(O)C(=O)C[C@@H](C)O[C@H]3O[C@@H]2[C@H]1O` [Spectinomycin dihydrochloride] + CCC(C)CCCC(=O)N[C@@H](CCN)C(=O)N[C@H](C(=O)N[C@@H](CCN)C(=O)N[C@H]1CCNC(=O)[C@H]([C@@H](C)O)NC(=O)[C@H](CCN)NC(=O)[C@H](CCN)NC(=O)[C@H](CC(C)C)NC(=O)[C@@H](CC(C)C)NC(=O)[C@H](CCN)NC1=O)[C@@H](C)O [colistin], the OD600 is inactive: 1.11.

In the case of `CN1CCc2nc(C(=O)N[C@@H]3C[C@@H](C(=O)N(C)C)CC[C@@H]3NC(=O)C(=O)Nc3ccc(Cl)cn3)sc2C1` [Edoxaban Tosylate Monohydrate] + CCC(C)CCCC(=O)N[C@@H](CCN)C(=O)N[C@H](C(=O)N[C@@H](CCN)C(=O)N[C@H]1CCNC(=O)[C@H]([C@@H](C)O)NC(=O)[C@H](CCN)NC(=O)[C@H](CCN)NC(=O)[C@H](CC(C)C)NC(=O)[C@@H](CC(C)C)NC(=O)[C@H](CCN)NC1=O)[C@@H](C)O [colistin], the OD600 was inactive: 0.975.

Consider `N[C@@H]1CONC1=O` [D-Cycloserine] + CCC(C)CCCC(=O)N[C@@H](CCN)C(=O)N[C@H](C(=O)N[C@@H](CCN)C(=O)N[C@H]1CCNC(=O)[C@H]([C@@H](C)O)NC(=O)[C@H](CCN)NC(=O)[C@H](CCN)NC(=O)[C@H](CC(C)C)NC(=O)[C@@H](CC(C)C)NC(=O)[C@H](CCN)NC1=O)[C@@H](C)O [colistin], for which the OD600 is inactive: 0.976.

With `C[C@]12C=CC(=O)N[C@@H]1CC[C@@H]1[C@@H]2CC[C@]2(C)[C@@H](C(=O)Nc3cc(C(F)(F)F)ccc3C(F)(F)F)CC[C@@H]12` [Dutasteride] + CCC(C)CCCC(=O)N[C@@H](CCN)C(=O)N[C@H](C(=O)N[C@@H](CCN)C(=O)N[C@H]1CCNC(=O)[C@H]([C@@H](C)O)NC(=O)[C@H](CCN)NC(=O)[C@H](CCN)NC(=O)[C@H](CC(C)C)NC(=O)[C@@H](CC(C)C)NC(=O)[C@H](CCN)NC1=O)[C@@H](C)O [colistin], the OD600 was inactive: 1.19.

`C[C@@H]1C[C@H]2[C@@H]3CCC4=CC(=O)C=C[C@]4(C)[C@@]3(F)[C@@H](O)C[C@]2(C)[C@@]1(O)C(=O)CO` [Dexamethasone] + CCC(C)CCCC(=O)N[C@@H](CCN)C(=O)N[C@H](C(=O)N[C@@H](CCN)C(=O)N[C@H]1CCNC(=O)[C@H]([C@@H](C)O)NC(=O)[C@H](CCN)NC(=O)[C@H](CCN)NC(=O)[C@H](CC(C)C)NC(=O)[C@@H](CC(C)C)NC(=O)[C@H](CCN)NC1=O)[C@@H](C)O [colistin]: the OD600 was inactive: 1.11.

Consider `CC(=O)O[C@H]1CC[C@@]2(C)C(=CC[C@@H]3[C@@H]2CC[C@]2(C)C(c4cccnc4)=CC[C@@H]32)C1` [Abiraterone Acetate] + CCC(C)CCCC(=O)N[C@@H](CCN)C(=O)N[C@H](C(=O)N[C@@H](CCN)C(=O)N[C@H]1CCNC(=O)[C@H]([C@@H](C)O)NC(=O)[C@H](CCN)NC(=O)[C@H](CCN)NC(=O)[C@H](CC(C)C)NC(=O)[C@@H](CC(C)C)NC(=O)[C@H](CCN)NC1=O)[C@@H](C)O [colistin], for which the OD600 was inactive: 0.924.

Turning to `COc1cc2ncnc(Nc3ccc(F)c(Cl)c3)c2cc1NC(=O)/C=C/CN1CCCCC1` [Dacomitinib] + CCC(C)CCCC(=O)N[C@@H](CCN)C(=O)N[C@H](C(=O)N[C@@H](CCN)C(=O)N[C@H]1CCNC(=O)[C@H]([C@@H](C)O)NC(=O)[C@H](CCN)NC(=O)[C@H](CCN)NC(=O)[C@H](CC(C)C)NC(=O)[C@@H](CC(C)C)NC(=O)[C@H](CCN)NC1=O)[C@@H](C)O [colistin], the OD600 was inactive: 0.931.

In the case of `CC(C)c1nc(N(C)S(C)(=O)=O)nc(-c2ccc(F)cc2)c1/C=C/[C@@H](O)C[C@@H](O)CC(=O)O` [Rosuvastatin] + CCC(C)CCCC(=O)N[C@@H](CCN)C(=O)N[C@H](C(=O)N[C@@H](CCN)C(=O)N[C@H]1CCNC(=O)[C@H]([C@@H](C)O)NC(=O)[C@H](CCN)NC(=O)[C@H](CCN)NC(=O)[C@H](CC(C)C)NC(=O)[C@@H](CC(C)C)NC(=O)[C@H](CCN)NC1=O)[C@@H](C)O [colistin], the OD600 was inactive: 1.01.

Take `C[C@H](CCC(=O)O)[C@H]1CC[C@H]2[C@@H]3CC[C@@H]4C[C@H](O)CC[C@]4(C)[C@H]3CC[C@]12C` [Lithocholic acid] + CCC(C)CCCC(=O)N[C@@H](CCN)C(=O)N[C@H](C(=O)N[C@@H](CCN)C(=O)N[C@H]1CCNC(=O)[C@H]([C@@H](C)O)NC(=O)[C@H](CCN)NC(=O)[C@H](CCN)NC(=O)[C@H](CC(C)C)NC(=O)[C@@H](CC(C)C)NC(=O)[C@H](CCN)NC1=O)[C@@H](C)O [colistin]: the OD600 is inactive: 0.817.

As for `O=C1OCCN1/N=C/c1ccc([N+](=O)[O-])o1` [Furazolidone] + CCC(C)CCCC(=O)N[C@@H](CCN)C(=O)N[C@H](C(=O)N[C@@H](CCN)C(=O)N[C@H]1CCNC(=O)[C@H]([C@@H](C)O)NC(=O)[C@H](CCN)NC(=O)[C@H](CCN)NC(=O)[C@H](CC(C)C)NC(=O)[C@@H](CC(C)C)NC(=O)[C@H](CCN)NC1=O)[C@@H](C)O [colistin], the OD600 is active: 0.04.

As for `C#CCN[C@@H]1CCc2ccccc21` [Rasagiline] + CCC(C)CCCC(=O)N[C@@H](CCN)C(=O)N[C@H](C(=O)N[C@@H](CCN)C(=O)N[C@H]1CCNC(=O)[C@H]([C@@H](C)O)NC(=O)[C@H](CCN)NC(=O)[C@H](CCN)NC(=O)[C@H](CC(C)C)NC(=O)[C@@H](CC(C)C)NC(=O)[C@H](CCN)NC1=O)[C@@H](C)O [colistin], the OD600 is inactive: 1.16.

Take `Clc1ccc(COC(Cn2ccnc2)c2ccc(Cl)cc2Cl)c(Cl)c1` (stereo not drawn) [Miconazole nitrate] + CCC(C)CCCC(=O)N[C@@H](CCN)C(=O)N[C@H](C(=O)N[C@@H](CCN)C(=O)N[C@H]1CCNC(=O)[C@H]([C@@H](C)O)NC(=O)[C@H](CCN)NC(=O)[C@H](CCN)NC(=O)[C@H](CC(C)C)NC(=O)[C@@H](CC(C)C)NC(=O)[C@H](CCN)NC1=O)[C@@H](C)O [colistin]: the OD600 is inactive: 1.07.

With `COC(=O)C1=C(C)NC(C)=C(C(=O)OCCN(C)Cc2ccccc2)C1c1cccc([N+](=O)[O-])c1` (stereo not drawn) [Nicardipine] + CCC(C)CCCC(=O)N[C@@H](CCN)C(=O)N[C@H](C(=O)N[C@@H](CCN)C(=O)N[C@H]1CCNC(=O)[C@H]([C@@H](C)O)NC(=O)[C@H](CCN)NC(=O)[C@H](CCN)NC(=O)[C@H](CC(C)C)NC(=O)[C@@H](CC(C)C)NC(=O)[C@H](CCN)NC1=O)[C@@H](C)O [colistin], the OD600 is inactive: 1.01.

For `Cc1ccc(Sc2ccccc2N2CCNCC2)c(C)c1` [Vortioxetine] + CCC(C)CCCC(=O)N[C@@H](CCN)C(=O)N[C@H](C(=O)N[C@@H](CCN)C(=O)N[C@H]1CCNC(=O)[C@H]([C@@H](C)O)NC(=O)[C@H](CCN)NC(=O)[C@H](CCN)NC(=O)[C@H](CC(C)C)NC(=O)[C@@H](CC(C)C)NC(=O)[C@H](CCN)NC1=O)[C@@H](C)O [colistin], the OD600 is inactive: 1.06.

For the compound `CCOC(=O)N1CCC(=C2c3ccc(Cl)cc3CCc3cccnc32)CC1` [Loratadine] + CCC(C)CCCC(=O)N[C@@H](CCN)C(=O)N[C@H](C(=O)N[C@@H](CCN)C(=O)N[C@H]1CCNC(=O)[C@H]([C@@H](C)O)NC(=O)[C@H](CCN)NC(=O)[C@H](CCN)NC(=O)[C@H](CC(C)C)NC(=O)[C@@H](CC(C)C)NC(=O)[C@H](CCN)NC1=O)[C@@H](C)O [colistin], the OD600 is inactive: 0.906.

`CCCCCOC(=O)Nc1nc(=O)n([C@@H]2O[C@H](C)[C@@H](O)[C@H]2O)cc1F` [Capecitabine] + CCC(C)CCCC(=O)N[C@@H](CCN)C(=O)N[C@H](C(=O)N[C@@H](CCN)C(=O)N[C@H]1CCNC(=O)[C@H]([C@@H](C)O)NC(=O)[C@H](CCN)NC(=O)[C@H](CCN)NC(=O)[C@H](CC(C)C)NC(=O)[C@@H](CC(C)C)NC(=O)[C@H](CCN)NC1=O)[C@@H](C)O [colistin]: the OD600 is inactive: 0.683.

With `Cc1cc(Nc2ncnc3ccc(NC4=NC(C)(C)CO4)cc23)ccc1Oc1ccn2ncnc2c1` [Tucatinib] + CCC(C)CCCC(=O)N[C@@H](CCN)C(=O)N[C@H](C(=O)N[C@@H](CCN)C(=O)N[C@H]1CCNC(=O)[C@H]([C@@H](C)O)NC(=O)[C@H](CCN)NC(=O)[C@H](CCN)NC(=O)[C@H](CC(C)C)NC(=O)[C@@H](CC(C)C)NC(=O)[C@H](CCN)NC1=O)[C@@H](C)O [colistin], the OD600 is inactive: 0.995.

Turning to `CC[C@H]1OC(=O)[C@H](C)[C@@H](O[C@H]2C[C@@](C)(OC)[C@@H](O)[C@H](C)O2)[C@H](C)[C@@H](O[C@@H]2O[C@H](C)C[C@H](N(C)C)[C@H]2O)[C@](C)(OC)C[C@@H](C)C(=O)[C@H](C)[C@@H](O)[C@]1(C)O` [Clarithromycin] + CCC(C)CCCC(=O)N[C@@H](CCN)C(=O)N[C@H](C(=O)N[C@@H](CCN)C(=O)N[C@H]1CCNC(=O)[C@H]([C@@H](C)O)NC(=O)[C@H](CCN)NC(=O)[C@H](CCN)NC(=O)[C@H](CC(C)C)NC(=O)[C@@H](CC(C)C)NC(=O)[C@H](CCN)NC1=O)[C@@H](C)O [colistin], the OD600 was active: 0.036.
